{"source": "patent US5700769A", "about": "“Enhancement of enzyme reactions” (Novo Nordisk A/S, priority 1992, dated 1997)", "biological_target": "T1, Coprinus cinereus peroxidase (Coprinopsis cinerea, UniProt P28314)", "T1 construct": "made in house", "T1 sequence (P28314 21-363)": "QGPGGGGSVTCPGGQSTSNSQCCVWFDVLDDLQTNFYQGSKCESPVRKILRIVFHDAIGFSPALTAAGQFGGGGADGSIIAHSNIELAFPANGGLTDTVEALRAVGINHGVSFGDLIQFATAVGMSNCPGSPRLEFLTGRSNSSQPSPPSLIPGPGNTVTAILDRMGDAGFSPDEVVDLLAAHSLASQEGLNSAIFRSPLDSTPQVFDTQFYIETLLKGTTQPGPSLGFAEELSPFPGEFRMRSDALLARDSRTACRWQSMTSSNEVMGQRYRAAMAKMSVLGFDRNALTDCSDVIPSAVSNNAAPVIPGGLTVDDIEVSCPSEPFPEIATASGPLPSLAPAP", "assay": "Terg-o-tometer washing trial, peroxidase based dye transfer inhibition (Example 5)", "settings": "for Hunter ΔE with respect to white, washed fabric: 5 nM peroxidase, 50 μM H2O2, pH 10.5, 35° C., 15 min wash, Acid Red 151", "note": "At least one structure is not confirmed: it was looked up by name or label, or the drawing left a doubt.", "data": [{"smiles": "O=S(=O)(O)c1ccc(O)cc1", "note": "[pHBS, p-hydroxybenzenesulfonate]", "values": [{"measurement": "Hunter ΔE with respect to white, washed fabric", "setting": "1 μM enhancer", "value": 34.8}, {"measurement": "dye transfer inhibition effect (in words)", "setting": "5 μM enhancer", "value": "does not"}, {"measurement": "Hunter ΔE with respect to white, washed fabric", "setting": "5 μM enhancer", "value": 34.5}, {"measurement": "Hunter ΔE with respect to white, washed fabric", "setting": "20 μM enhancer", "value": 30.8}]}]}
